Values quoted from earlier work as cited in patent US6761903B2, “Clear oil-containing pharmaceutical compositions containing a therapeutic agent” (Lipocine, Inc., priority 1999, dated 2004).
Some entries share one result that the patent states for a list of compounds.

Details: as reported by the manufacturer of the commercial product, rough average or inventors' judgment

CC(C)=CCC[C@@H](C)[C@H]1CC[C@@]2(C)C3=C(CC[C@]12C)[C@@]1(C)CC[C@H](O)C(C)(C)[C@@H]1CC3 [lanosterol]
HLB: <10
